From patent US10273272B2, “Antimicrobial peptides” (Amprologix Limited, priority 2014, dated 2019)
Not every detail of the peptide structures is certain; ends, links or a residue may be inferred. Some compounds share one wording; it may come from a single statement. Residues, ends and D or L forms follow the SMILES beside them. No end group written: not given here.

How the values were obtained:
[1] = system: Gram positive and negative bacteria; assay: Antimicrobial activity against drug-resistant pathogens, summary in words; type: cell-based; settings: summary of Table 2
Protocol: (§1) A series of derivatives of the NI0138-51 (SEQ ID NO:12) truncation were carried out with a view to maintaining stability of the helix and/or increasing net positive charge of the peptides (Table 3). Minimum inhibitory concentrations (MICs) were determined for each derivative against a range of Gram positive and Gram negative organisms by a modified 2-fold microtitre broth dilution method (Wu and Hancock, J Biol Chem 1999; 274: 29-35) (Table 2). […] This could not have been predicted.

Gram-negative bacteria = type: cell-based; settings: data not shown
Protocol: It was a most surprising finding that the truncated and modified novel peptides of the present invention based on the epidermicin peptide were effective against Gram negative bacteria.
as §1

Molecule	antimicrobial activity against Gram positive and negative bacteria, in words [1]	activity against Gram negative cells, in words (Gram-negative bacteria)
CC[C@H](C)[C@H](NC(=O)[C@H](CCC(N)=O)NC(=O)[C@H](CCCCN)NC(=O)[C@H](Cc1ccc(O)cc1)NC(=O)[C@@H](NC(=O)[C@H](Cc1c[nH]c2ccccc12)NC(=O)[C@H](CCCCN)NC(=O)[C@H](Cc1ccccc1)NC(=O)[C@H](CO)NC=O)[C@@H](C)CC)C(=O)N[C@@H](CCCCN)C(=O)N[C@@H](CCCCN)C(=O)N[C@@H](CC(C)C)C(=O)N[C@@H](Cc1c[nH]c2ccccc12)C(=O)N[C@@H](C)C(=O)O [SEQ ID NO:4, formyl-SFKWIYKQIKKLWA] (HELM PEPTIDE1{[O=C[*:2]].S.F.K.W.I.Y.K.Q.I.K.K.L.W.A}$$$$V2.0; C-terminus assumed)	potent activity	–
MAAFMKLIQFLATKGQKYVSLAWKHKGTILKWINAGQSFEWIYKQIKKLWA [SEQ ID NO:10, reference compound]	–	not to be have potent activity
SFEWIYKQIKKLWA [SEQ ID NO:12, SFEWIYKQIKKLWA]	potent activity	–
SFEWIYKQIKKLWAK [SEQ ID NO:6, SFEWIYKQIKKLWAK]	potent activity	–
SFEWIYKQIKKLWAKKK [SEQ ID NO:7, SFEWIYKQIKKLWAKKK]	potent activity	–
SFKWIYKQIKKLWA [SEQ ID NO:5, SFKWIYKQIKKLWA]	potent activity	–
